This is one part of the list. These are further read-outs of the screen, such as a control signal, another cell line or another target. No call is given for them. Most of these compounds were active or inconclusive in the main read-out, so they are no random draw. Potencies come from curve fits of mixed quality, noted in brackets.
Assay: qHTS Assay to Find Inhibitors of Chronic Active B-Cell Receptor Signaling
Settings: ABC-DLBCL IkBa-CBG/CBR reporter, luminescence ratio (green luciferase fused to IkBa over red control in TMD8 lymphoma cells), 4 h
How it was run: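 Doxycycline induced both beetle luciferases in TMD8 lymphoma cells; IKK-driven degradation limits the IkappaBalpha-fused green signal, while red luminescence normalises for cell number and nonspecific effects. Compounds tested up to 46 uM, 4 hrs.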

[1] = measured here: CBR red luminescence, cell number
[2] = measured here: IkBa-CBG green luminescence

| Structure (SMILES) | AC50 [1] | AC50 [2] |
| --- | --- | --- |
| CCC1CCCCN1C(=O)COc1ccccc1NC(C)=O (stereo not drawn) | 22.4 µM [falling, single point] |  |
| O=C1CCCC2=C1Sc1ccccc1N2 | 15.8 µM [falling, partial curve, poor fit] |  |
| Cn1nnc2c[n+](CC(=O)c3ccc(Cl)cc3)cc(Br)c21 | 35.5 µM [rising, partial curve, poor fit] | 35.5 µM [falling, single point] |
| Cc1cc(C)nc(SCc2n[nH]c(=S)n2C)n1 | 29.1 µM [rising, single point] |  |
| CNS(=O)(=O)c1cc(NC(=O)c2cnc(SC)n2-c2ccccc2)ccc1C | 35.5 µM [falling, single point] |  |
| CCOc1cc(/C=N/NC(=O)c2cc(-c3ccccc3)nc3ccccc23)ccc1O | 2.51 µM [falling, full curve, poor fit] |  |
| N#C/C(=C(/O)c1ccc(F)cc1)c1nc2ccccc2s1 | 0.447 µM [falling, full curve] |  |
| O=[N+]([O-])c1ccccc1OCCCOc1cccc2cccnc12 | 12.6 µM [rising, partial curve] |  |
| CC(C)CC(=O)NN(C)c1nc(-c2ccccc2)nnc1C(F)(F)F | 9.2 µM [rising, partial curve, poor fit] |  |
| COc1cc(/C=C/C(=O)OC2CC3CCC2(C)C3(C)C)ccc1O (stereo not drawn) | 35.5 µM [rising, single point] |  |
| CC(=O)c1sc(NC(=O)CN2C(=O)C3CC=CCC3C2=O)nc1-c1ccccc1 (stereo not drawn) | 0.164 µM [falling, full curve, poor fit] |  |
| Cc1ccc(S(=O)(=O)N(C)C)cc1NC(=O)/C=C/c1cccs1 | 36.6 µM [rising, partial curve, poor fit] |  |
| O=C(O)/C=C/C(=O)NNC(=O)c1ccccc1Br | 10 µM [falling, partial curve] |  |
| Fc1cccc(F)c1/C=N/NC(=S)Nc1cccnc1 | 12.6 µM [rising, single point] | 25.1 µM [falling, single point] |
| O=C(Nc1ccc(Br)cc1)C(c1ccccc1)c1ccccc1 | 31.6 µM [rising, single point] |  |
| COC(=O)c1sc(N)c(C(=O)OC)c1COC(=O)C1CC(=O)N(Cc2ccco2)C1 (stereo not drawn) | 1.03 µM [rising, partial curve, poor fit] |  |
| COc1ccc(C(=O)NCc2nnc(SCC(=O)Nc3nc4ccc(C)cc4s3)o2)cc1OC | 6.51 µM [rising, full curve, poor fit] |  |
| COc1ccc2nc(SCC(=O)N(C)C3CCCCC3)c(C#N)cc2c1 | 18.4 µM [falling, single point] |  |
| Cc1occc1C(=O)NN=C1C2CC3CC(C2)CC1C3 | 9.2 µM [falling, partial curve] |  |
| CC(C)C1CC(CCNCc2ccc3c(c2)OCO3)(c2ccccc2)CCO1 (stereo not drawn) | 10 µM [falling, partial curve, poor fit] |  |
| COc1cc(N=c2ssnc2Cl)c(OC)cc1Cl | 3.66 µM [rising, single point] |  |
| COc1ccc(OCc2cc(-c3ccc(Cl)cc3)no2)cc1 | 12.6 µM [rising, single point] |  |

| Structure (SMILES) | AC50 [1] | AC50 [2] |
| --- | --- | --- |
| N=c1n(CCN2CCOCC2)c2ccccc2n1Cc1ccccc1Br | 6.31 µM [falling, single point] |  |
| CCOCCCNC(=O)c1c(C)c(C(=O)OCC)n(C)c1C | 6.51 µM [rising, single point] |  |
| Cc1cc(C)c2cc3c(ccn3C3OC[C@H](O)[C@H](O)[C@H]3O)cc2n1 (stereo partly drawn) | 4.61 µM [falling, single point] |  |
| COc1ccc(-n2nnc3c(SCc4ccccc4)ncnc32)cc1 | 3.55 µM [rising, single point] |  |
| Cc1ccccc1Nc1nc(N)nc(COC(=O)c2cccc(S(=O)(=O)N(C)c3ccccc3)c2)n1 | 29.1 µM [falling, single point] |  |
| COCc1cc(=O)c2ccccc2o1 | 8.2 µM [rising, partial curve, poor fit] |  |
| Cc1ccccc1NC(=S)N1CCCN(Cc2ccc(F)cc2)C1 | 14.1 µM [falling, partial curve] |  |
| CCCOc1ccc(CNC(=O)Cn2ncc3ccccc32)cc1 | 12.6 µM [falling, partial curve, poor fit] |  |
| c1ccc2[nH]c(CN3CCCCC3)nc2c1 | 1.16 µM [rising, full curve, poor fit] |  |
| O=C(CN1CCCCC1)c1c[nH]c2ccccc12 | 10 µM [falling, partial curve] |  |
| Cc1ccc(Cl)cc1N1CCN(S(C)(=O)=O)CC1 | 0.651 µM [rising, full curve, poor fit] |  |
| CC(C)c1ccc(-n2cnn(-c3ncccc3[N+](=O)[O-])c2=O)cc1 | 35.5 µM [falling, single point] |  |
| COc1cc2c(cc1OC)C(c1ccc3c(c1)OCO3)CC(=O)N2 (stereo not drawn) | 0.259 µM [rising, partial curve, poor fit] |  |
| Cc1cc(C(=O)CSc2nnnn2C)c(C)n1-c1ccc2c(c1)OCCO2 | 11.6 µM [rising, single point] |  |
| O=c1oc2ccc(Cl)cc2cc1-c1ccccc1 | 0.651 µM [rising, full curve] |  |
| CCCCNC(=O)CSc1nc2ccc(N3CCOCC3)cc2c(=O)n1CCc1ccccc1 | 18.4 µM [falling, single point] |  |
| COc1ccc2c(=O)c3c(=O)n(-c4ccccc4)c(-c4ccc(C)cc4)nc3oc2c1 | 0.794 µM [falling, full curve] |  |
| CCC(C)NCCOCCOc1ccc(F)cc1 (stereo not drawn) | 8.2 µM [rising, partial curve, poor fit] |  |
| O=C1c2cccc3cccc(c23)C(=O)N1CC1CCCO1 (stereo not drawn) | 5.01 µM [falling, partial curve, poor fit] |  |
| COc1ccc(CCNc2cc(C)[nH]c(=O)c2)cc1OC | 0.447 µM [rising, full curve, poor fit] |  |
| COc1ccc2[nH]c(C(=O)Nc3ccc4c(c3)OCO4)cc2c1 | 2.82 µM [falling, full curve, poor fit] |  |
| O=C(O)c1cc(N/N=C/c2cccnc2)ccc1Cl | 10 µM [falling, partial curve] |  |

| Structure (SMILES) | AC50 [1] | AC50 [2] |
| --- | --- | --- |
| O=C(Oc1ccc(Cl)c2cccnc12)c1cccnc1 | 22.4 µM [rising, partial curve, poor fit] |  |
| Cc1nc(NC(=O)/C=C/c2ccco2)sc1C | 1.84 µM [falling, full curve, poor fit] |  |
| COc1ccc(/C=C2/SC(=O)N(CCNC(=O)CC(NC(C)=O)c3ccccc3)C2=O)cc1 (stereo not drawn) | 31.6 µM [rising, single point] |  |
| COc1ccc(C(=O)Nc2nnc(CCc3ccccc3)s2)c(OC)c1 | 12.6 µM [rising, partial curve, poor fit] |  |
| CCSc1nnc(NC(=O)c2cc(C)oc2C)s1 | 0.651 µM [falling, partial curve, poor fit] |  |
| C[C@H](NC(=O)c1nc[nH]c1C(=O)NCCCCCNC(=O)OC(C)(C)C)c1ccccc1 | 29.1 µM [falling, single point] |  |
| Nc1c(C(=O)CSc2nccn2-c2ccc(Cl)cc2)c(=O)[nH]c(=O)n1C1CC1 | 23.1 µM [falling, single point] |  |
| C/C(=N\NC(=O)Cc1ccc(Br)cc1)c1cccnc1 | 22.4 µM [rising, single point] |  |
| CN(CC(=O)Nc1ccccc1C(F)(F)F)CC(=O)N1CCCCCC1 | 29.1 µM [rising, single point] |  |
| Cc1ccc(CNC(=O)C(=O)c2cn(CC(=O)N3CCCC3)c3ccccc23)cc1 | 0.794 µM [falling, full curve] |  |
| Cn1c(CCc2nc3ccccc3[nH]2)nnc1SCC#N | 15.8 µM [falling, partial curve, poor fit] |  |
| COc1ccccc1/C=C/C(=O)NNC(=O)c1cc(C)oc1C | 8.2 µM [falling, partial curve] |  |
| CCC(=O)Oc1c(C(=O)CC)cc2c(C)cc(=O)oc2c1C | 3.66 µM [falling, partial curve, poor fit] |  |
| Nc1ncnc2c1c(-c1ccc(Oc3ccccc3)cc1)cn2C1CCCC1 | 0.731 µM [falling, full curve] |  |
| CC(C)C1=C2OC(N)=C(C#N)C(C#N)=C2C(C)CC1 (stereo not drawn) | 17.8 µM [rising, partial curve, poor fit] |  |
| COc1ccc(NC(=O)N(C)C[C@H]2Oc3ccc(NC(=O)CCN4CCOCC4)cc3C(=O)N([C@@H](C)CO)C[C@H]2C)cc1 | 0.146 µM [rising, full curve, poor fit] |  |
| CCOc1ccc(CNC(=O)C(=O)c2cn(CC(=O)N3CCOCC3)c3ccccc23)cc1OC | 8.91 µM [falling, partial curve] |  |
| CCOC(=O)c1c(C)[nH]c(C)c1C(=O)COC(=O)c1cc2ccccc2cc1O | 5.17 µM [rising, single point] |  |
| CC(=O)Nc1ccc2nc(NC(=O)CS(=O)(=O)c3ccccc3)sc2c1 | 23.1 µM [falling, partial curve, poor fit] |  |
| O=C(O)CC1SC(=O)N(Cc2ccccc2)C1=O (stereo not drawn) | 14.1 µM [rising, single point] |  |
| CC(NS(=O)(=O)c1cc2c3c(c1)CCC(=O)N3CCC2)c1ccccc1 (stereo not drawn) | 9.2 µM [falling, partial curve, poor fit] |  |
| CSc1ccccc1NC(=O)CN1CCN(S(=O)(=O)c2ccccc2[N+](=O)[O-])CC1 | 29.1 µM [falling, single point] |  |

Complete entries as entered above.
CCCOc1ccc(CNC(=O)Cn2ncc3ccccc32)cc1 as listed: AC50 [1]: 12.6 µM [falling, partial curve, poor fit]
CC(C)CC(=O)NN(C)c1nc(-c2ccccc2)nnc1C(F)(F)F as listed: AC50 [1]: 9.2 µM [rising, partial curve, poor fit]

Fetched one by one from the entries so far (3):

| Structure (SMILES) | AC50 [1] | AC50 [2] |
| --- | --- | --- |
| CNS(=O)(=O)c1cc(NC(=O)c2cnc(SC)n2-c2ccccc2)ccc1C | 35.5 µM [falling, single point] |  |
| CSc1ccccc1NC(=O)CN1CCN(S(=O)(=O)c2ccccc2[N+](=O)[O-])CC1 | 29.1 µM [falling, single point] |  |
| COc1ccccc1/C=C/C(=O)NNC(=O)c1cc(C)oc1C | 8.2 µM [falling, partial curve] |  |

From PubChem BioAssay AID493014 (National Center for Advancing Translational Sciences (NCATS), 2011)
